According to the supplement of paper PMC8732350:
Where “and” joins values, the source holds several entries; their conditions need not be identical. Identical values can stand only once. Counter-ions that a name gives are not always drawn. ± gives the standard deviation of the averaged measurements. The list shows a part of the results. Single values are uncertain here, since repeats match poorly.

The compounds below were run on A549 (assay: surface PD-L1 immunofluorescence intensity relative to IFN-gamma-only control (ratio); higher = more PD-L1 expression). Conditions: 10 µM; exposure time 24 h; IFN-gamma 100 ng/mL.

| SMILES | surface PD-L1 immunofluorescence intensity |
| --- | --- |
| CCCn1c(=O)c(C)cn2nc(N)nc12 | 1.02 |
| CC1=NN(c2ccc(C)c(C)c2)C(=O)/C1=N\Nc1cccc(-c2cccc(C(=O)O)c2)c1O | 0.971 |
| c1ccc2cc(C3=NCCN3)ncc2c1 [BU 226 hydrochloride] | 0.989 |
| C[C@@H]1C/C=C/C=C/C=C/C=C/[C@H](O[C@@H]2O[C@H](C)[C@@H](O)[C@H](N)[C@@H]2O)C[C@@H]2O[C@](O)(C[C@@H](O)C[C@H]3O[C@@H]3/C=C/C(=O)O1)C[C@H](O)[C@H]2C(=O)O [Natamycin (Pimaricin)] | 1.08 |
| CC(C(O)c1ccc(O)cc1)N1CCC(Cc2ccccc2)CC1 (configuration not stated) [Ifenprodil hemitartrate] | 1.01 |
| CC(C(O)c1ccc(O)cc1)N1CCC(Cc2ccccc2)CC1 (configuration not stated) [Ifenprodil tartrate] | 0.988 |
| O=C(/C=C/c1ccc(O)c(O)c1)O[C@H](Cc1ccc(O)c(O)c1)C(=O)O [Rosmarinic acid] | 0.973 ± 0.044 |
| C1CCC(N=C(NC23CC4CC(CC(C4)C2)C3)N2CCOCC2)CC1 | 0.963 |
| COC(=O)[C@H](Cc1ccccc1)NC(=O)[C@@H](N)CC(=O)O [Aspartame] | 1.15 |
| NC(=O)N/N=C/c1ccc(Oc2ccc(F)cc2)cc1 | 0.939 |
| C[C@]12CC[C@@H]3c4ccc(O)cc4C[C@@H](CCCCCCCCC[S+]([O-])CCCC(F)(F)C(F)(F)F)[C@H]3[C@@H]1CC[C@@H]2O (some centres not stated) [Fulvestrant (Faslodex)] | 1.22 |
| C[C@]12CC[C@@H]3c4ccc(O)cc4C[C@@H](CCCCCCCCC[S+]([O-])CCCC(F)(F)C(F)(F)F)[C@H]3[C@@H]1CC[C@@H]2O (some centres not stated) [Fulvestrant] | 1.04 ± 0.26 |
| COc1cc(CNC(=O)CCCC/C=C/C(C)C)ccc1O [Capsaicin] | 1.016 ± 0.0093 |
| CO/N=C(\C(=O)N[C@@H]1C(=O)N2C(C(=O)O)=C(COC(C)=O)CS[C@H]12)c1csc(N)n1 [Cefotaxime sodium salt] | 0.937 |
| C=C[C@](C)(O)CC[C@@H]1[C@@]2(C)CCCC(C)(C)[C@@H]2CC[C@@]1(C)O [Sclareol] | 1.06 |
| COC1CCC(C(=O)c2ccc3nc4c(cc3c2)CCCO4)CC1 (configuration not stated) | 0.906 |
| Clc1ccc2nsnc2c1NC1=NCCN1 [Tizanidine hydrochloride] | 1.01 |
| Clc1ccc2nsnc2c1NC1=NCCN1 [Tizanidine HCl] | 1.04 |
| Cc1cc2cc3c(C)cc(=O)oc3c(C)c2o1 [Trioxsalen] | 1 |
| CC(=O)Nc1nnc(S(N)(=O)=O)s1 [Acetazolamide] | 0.85 |
| Nc1nc(OCc2cc(Br)cs2)c2[nH]cnc2n1 [Lomeguatrib] | 0.864 |
| CCCCOc1ccc(C(=O)Nc2ccc(F)cc2F)cc1 | 0.975 |
| CC(C)Oc1ccc2c(=O)c(-c3ccccc3)coc2c1 [Ipriflavone] | 1.01 |
| Cc1cc(C(C)Nc2ccccc2)c2nc(N3CCOCC3)cc(=O)n2c1 (configuration not stated) | 0.957 |

| SMILES | surface PD-L1 immunofluorescence intensity |
| --- | --- |
| CC(C)c1ccccc1S(=O)(=O)c1cc(N)c2ncccc2c1[N+](=O)[O-] | 0.995 |
| CCOC(=O)C1=C(N)Oc2ccc(Br)cc2C1C(C#N)C(=O)OCC (configuration not stated) | 1.05 ± 0.08 |
| CCCCOc1cc(C(=O)OCCN(CC)CC)ccc1N [Benoxinate hydrochloride] | 0.937 |
| CC(=O)Nc1c(I)c(C(=O)N[C@H]2C(O)O[C@H](CO)[C@@H](O)[C@@H]2O)c(I)c(N(C)C(C)=O)c1I (some centres not stated) [Metrizamide] | 1.08 |
| CCN(CC)CCNC(=O)c1ccc(N)cc1 [Procainamide hydrochloride] | 1.07 |
| NC[C@H](O)c1ccc(O)c(O)c1 [Noradrenaline bitartrate monohydrate (Levophed)] | 0.924 |
| O=C(O)c1ccnc(C(=O)O)c1 [2,4-Pyridinedicarboxylic Acid] | 1.05 |
| Cc1ccccc1N1CCN(S(=O)(=O)C[C@]23CC[C@H](C[C@@H]2NC(=O)[C@@H](N)CCS(C)(=O)=O)C3(C)C)CC1 [L-368,899 hydrochloride] | 0.926 |
| CCOC(=O)[C@@H](C)Oc1cccc2c(=O)n(CC(=O)Nc3ccc4c(c3)OCCO4)ccc12 | 0.978 |
| CCc1cc2c(cc1CC)CC(NC[C@H](O)c1ccc(O)c3[nH]c(=O)ccc13)C2 [Indacaterol Maleate] | 0.94 |
| CNCC(O)c1ccc(O)c(O)c1 (configuration not stated) [Racepinephrine HCl] | 1.04 |
| c1cc(CN2CCCCC2)cc(OCCCNc2nc3ccccc3s2)c1 [Zolantidine dimaleate] | 0.982 |
| CCOC1O[C@H]([C@@H](COCc2ccccc2)OCc2ccccc2)[C@H](OCc2ccccc2)[C@H]1O (some centres not stated) [Tribenoside] | 1.06 |
| CC(CNC1CCCCC1)OC(=O)c1ccccc1 (configuration not stated) [Hexylcaine hydrochloride] | 1.04 |
| O=C(O)c1cccc(-c2noc(-c3ccccc3F)n2)c1 [PTC124 (Ataluren)] | 1.04 |
| Cc1ccc(-c2cc(C(F)(F)F)nn2-c2ccc(S(N)(=O)=O)cc2)cc1 [Celecoxib] | 0.956 ± 0.048 |
| CC(C)[N+]1(C)[C@@H]2CC[C@H]1C[C@@H](OC(=O)C(CO)c1ccccc1)C2 (some centres not stated) [Ipratropium bromide] | 1.09 |
| CCOC(=O)C1=C(C)NC(=S)NC1c1cccc(O)c1 (configuration not stated) [Monastrol] | 0.994 |
| CCn1c(N)c(C(=O)NC)c(=O)c2ccc(C#CC(C)(O)COC)nc21 (configuration not stated) | 0.999 ± 0.061 |
| N#Cc1c(N(CC(=O)O)CC(=O)O)sc(C(=O)O)c1CC(=O)O [Strontium ranelate (Protelos)] | 1.07 |
| CC[C@H]1OC(=O)[C@H](C)[C@@H](O[C@H]2C[C@@](C)(OC)[C@@H](O)[C@H](C)O2)[C@H](C)[C@@H](O[C@@H]2O[C@H](C)C[C@H](N(C)C)[C@H]2O)[C@](C)(O)C[C@@H](C)CN(C)[C@H](C)[C@@H](O)[C@]1(C)O [Azithromycin (Zithromax)] | 1.08 |
| CC[C@H]1OC(=O)[C@H](C)[C@@H](O[C@H]2C[C@@](C)(OC)[C@@H](O)[C@H](C)O2)[C@H](C)[C@@H](O[C@@H]2O[C@H](C)C[C@H](N(C)C)[C@H]2O)[C@](C)(O)C[C@@H](C)CN(C)[C@H](C)[C@@H](O)[C@]1(C)O [Azithromycin] | 0.989 |
| C[C@@H]1CCC[C@H](C)N1NC(=O)c1ccc(Cl)c(S(N)(=O)=O)c1 [Clopamide] | 0.991 |
| CN[C@H]1CC[C@@H](c2ccc(Cl)c(Cl)c2)c2ccccc21 [Sertraline hydrochloride] | 0.828 |

| SMILES | surface PD-L1 immunofluorescence intensity |
| --- | --- |
| CN[C@H]1CC[C@@H](c2ccc(Cl)c(Cl)c2)c2ccccc21 [Sertraline] | 0.953 |
| COCCNC(=O)COc1ccc(OCCNC[C@H](O)COc2ccccc2)cc1 [ZD 7114 hydrochloride] | 0.954 |
| COCC(=O)NC/C=C/c1ccc2ncnc(Nc3ccc(Oc4ccc(C)nc4)c(C)c3)c2c1 | 0.842 |
| Cn1c(=O)c2c(ncn2CC2OCCO2)n(C)c1=O [Doxofylline] | 1.03 |
| Oc1cc2c(cc1O)C(c1ccccc1)CNCC2 (configuration not stated) | 0.967 |
| CC(C)NC[C@@H](C(=O)N1CCN(c2ncnc3c2[C@H](C)C[C@H]3O)CC1)c1ccc(Cl)cc1 [Ipatasertib (GDC-0068)] | 0.823 |
| Cc1ccc([C@@H]2O[C@H](CO)[C@@H](O)[C@H](O)[C@H]2O)cc1Cc1ccc(-c2ccc(F)cc2)s1 [Canagliflozin] | 1.02 |
| CC(C)(C)c1cc(C(C)(C)C)c(NC(=O)c2c[nH]c3ccccc3c2=O)cc1O [Ivacaftor (VX-770)] | 1.21 |
| CN1CCN(CC(=O)N2c3ccccc3C(=O)Nc3cccnc32)CC1 [Pirenzepine dihydrochloride] | 0.797 |
| CC(=O)N(CC(O)CO)c1c(I)c(C(=O)NCC(O)CO)c(I)c(C(=O)NCC(O)CO)c1I (configuration not stated) [Iohexol] | 0.997 |
| CN(CCCCCCCCCCN(C)C(=O)Oc1cccc([N+](C)(C)C)c1)C(=O)Oc1cccc([N+](C)(C)C)c1 [Demecarium bromide] | 0.99 |
| CC1CCN(CC[C@H]2CCCN2S(=O)(=O)c2cccc(O)c2)CC1 | 0.998 and 0.96 |
| Nc1ncnc2c1ncn2[C@@H]1O[C@H](CO)[C@@H](O)[C@@H]1O [Vidarabine] | 1.1 |
| NC[C@@H]1O[C@H](C23CC4CC(CC(C4)C2)C3)Cc2c1ccc(O)c2O | 0.976 |
| CC1OC2(CS1)CN1CCC2CC1 (configuration not stated) [Cevimeline hydrochloride] | 0.978 |
| CCOc1nc2cccc(C(=O)O)c2n1Cc1ccc(-c2ccccc2-c2nnn[nH]2)cc1 [Candesartan] | 0.917 |
| C[C@@](Cc1ccc(O)c(O)c1)(NN)C(=O)O [Carbidopa] | 0.909 |
| O=C[C@@H]1CCCN1C(=O)[C@@H]1CCCN1C(=O)OCc1ccccc1 [Z-Prolyl-prolinal] | 1 |
| COc1ccc(Cl)cc1NC(=O)Nc1cc(C)nc2ccccc12 | 1.06 ± 0.032 |
| CN(C)CCC(c1ccc(Br)cc1)c1ccccn1 (configuration not stated) [Brompheniramine maleate] | 0.96 |
| O=C1CC[C@@H](C(=O)N2CSC[C@H]2C(=O)O)N1 [Pidotimod] | 0.946 |
| c1ccc(-c2ccc(C(c3ccccc3)n3ccnc3)cc2)cc1 (configuration not stated) [Bifonazole] | 1.13 |
| Oc1c(Cl)cc(Cl)c2cccnc12 [Chloroxine] | 0.952 |
| CCCCCCCCCC(=O)N[C@@H](Cc1c[nH]c2ccccc12)C(=O)N[C@H](CC(N)=O)C(=O)N[C@@H](CC(=O)O)C(=O)N[C@@H]1C(=O)NCC(=O)N[C@@H](CCCN)C(=O)N[C@@H](CC(=O)O)C(=O)N[C@H](C)C(=O)N[C@@H](CC(=O)O)C(=O)NCC(=O)N[C@H](CO)C(=O)N[C@@H]([C@H](C)CC(=O)O)C(=O)N[C@@H](CC(=O)c2ccccc2N)C(=O)O[C@@H]1C [Daptomycin] | 1.03 |
